Measurements published in the supplement of paper PMC11732987, “Enantioselective OTUD7B fragment discovery through chemoproteomics screening and high-throughput optimisation” (Communications Chemistry, 2025).
Some of the results follow. The data scatter; read single values as rough.

The chains behind the UniProt entries cited, without tags or fusion partners. Where a name states a change or a piece, a line headed by the entry shows the natural chain unless it says otherwise. Residues count along the entry.
UniProt P48735: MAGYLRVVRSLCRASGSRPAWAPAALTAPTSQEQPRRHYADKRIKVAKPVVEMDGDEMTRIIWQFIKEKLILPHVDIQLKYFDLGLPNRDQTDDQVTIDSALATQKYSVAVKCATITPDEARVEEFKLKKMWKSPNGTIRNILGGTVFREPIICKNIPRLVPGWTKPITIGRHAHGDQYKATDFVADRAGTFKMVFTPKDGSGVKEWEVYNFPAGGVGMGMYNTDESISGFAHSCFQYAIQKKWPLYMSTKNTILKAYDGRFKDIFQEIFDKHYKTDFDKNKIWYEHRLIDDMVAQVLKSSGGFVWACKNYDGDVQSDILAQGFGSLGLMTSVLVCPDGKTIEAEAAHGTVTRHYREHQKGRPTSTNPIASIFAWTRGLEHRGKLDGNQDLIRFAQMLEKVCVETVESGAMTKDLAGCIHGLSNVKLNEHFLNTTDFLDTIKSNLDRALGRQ
UniProt P38646, 53-73: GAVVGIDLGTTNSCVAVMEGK
UniProt Q8NBQ5: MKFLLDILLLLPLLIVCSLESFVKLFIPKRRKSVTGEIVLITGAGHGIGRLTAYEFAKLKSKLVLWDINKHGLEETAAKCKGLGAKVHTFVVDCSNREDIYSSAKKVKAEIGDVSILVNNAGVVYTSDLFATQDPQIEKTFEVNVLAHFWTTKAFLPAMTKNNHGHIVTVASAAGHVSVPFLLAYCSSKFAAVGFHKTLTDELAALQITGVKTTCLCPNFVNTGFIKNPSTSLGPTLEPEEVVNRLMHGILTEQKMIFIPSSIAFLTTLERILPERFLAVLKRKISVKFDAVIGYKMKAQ
UniProt Q9H0C8: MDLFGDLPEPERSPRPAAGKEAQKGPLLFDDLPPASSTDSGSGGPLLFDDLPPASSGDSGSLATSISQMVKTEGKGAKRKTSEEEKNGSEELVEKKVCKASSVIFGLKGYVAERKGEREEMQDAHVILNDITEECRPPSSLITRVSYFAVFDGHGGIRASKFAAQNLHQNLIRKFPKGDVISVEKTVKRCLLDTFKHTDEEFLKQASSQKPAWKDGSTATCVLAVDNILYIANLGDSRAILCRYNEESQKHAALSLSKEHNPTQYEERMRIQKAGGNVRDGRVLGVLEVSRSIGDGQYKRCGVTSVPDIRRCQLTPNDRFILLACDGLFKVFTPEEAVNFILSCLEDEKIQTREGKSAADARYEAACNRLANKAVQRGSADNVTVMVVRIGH
UniProt Q9Y6K9, whole entry, looked up: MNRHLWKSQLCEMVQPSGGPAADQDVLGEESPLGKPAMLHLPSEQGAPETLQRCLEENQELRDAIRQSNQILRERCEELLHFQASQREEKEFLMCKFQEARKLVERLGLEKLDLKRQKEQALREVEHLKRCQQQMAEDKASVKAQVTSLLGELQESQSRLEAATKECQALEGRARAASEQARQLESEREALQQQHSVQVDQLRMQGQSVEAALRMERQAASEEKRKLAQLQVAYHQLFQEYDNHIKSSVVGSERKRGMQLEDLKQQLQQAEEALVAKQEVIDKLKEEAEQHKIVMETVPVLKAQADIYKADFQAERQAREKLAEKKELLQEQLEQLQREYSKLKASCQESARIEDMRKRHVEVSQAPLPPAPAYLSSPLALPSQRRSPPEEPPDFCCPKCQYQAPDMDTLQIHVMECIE
UniProt P11717: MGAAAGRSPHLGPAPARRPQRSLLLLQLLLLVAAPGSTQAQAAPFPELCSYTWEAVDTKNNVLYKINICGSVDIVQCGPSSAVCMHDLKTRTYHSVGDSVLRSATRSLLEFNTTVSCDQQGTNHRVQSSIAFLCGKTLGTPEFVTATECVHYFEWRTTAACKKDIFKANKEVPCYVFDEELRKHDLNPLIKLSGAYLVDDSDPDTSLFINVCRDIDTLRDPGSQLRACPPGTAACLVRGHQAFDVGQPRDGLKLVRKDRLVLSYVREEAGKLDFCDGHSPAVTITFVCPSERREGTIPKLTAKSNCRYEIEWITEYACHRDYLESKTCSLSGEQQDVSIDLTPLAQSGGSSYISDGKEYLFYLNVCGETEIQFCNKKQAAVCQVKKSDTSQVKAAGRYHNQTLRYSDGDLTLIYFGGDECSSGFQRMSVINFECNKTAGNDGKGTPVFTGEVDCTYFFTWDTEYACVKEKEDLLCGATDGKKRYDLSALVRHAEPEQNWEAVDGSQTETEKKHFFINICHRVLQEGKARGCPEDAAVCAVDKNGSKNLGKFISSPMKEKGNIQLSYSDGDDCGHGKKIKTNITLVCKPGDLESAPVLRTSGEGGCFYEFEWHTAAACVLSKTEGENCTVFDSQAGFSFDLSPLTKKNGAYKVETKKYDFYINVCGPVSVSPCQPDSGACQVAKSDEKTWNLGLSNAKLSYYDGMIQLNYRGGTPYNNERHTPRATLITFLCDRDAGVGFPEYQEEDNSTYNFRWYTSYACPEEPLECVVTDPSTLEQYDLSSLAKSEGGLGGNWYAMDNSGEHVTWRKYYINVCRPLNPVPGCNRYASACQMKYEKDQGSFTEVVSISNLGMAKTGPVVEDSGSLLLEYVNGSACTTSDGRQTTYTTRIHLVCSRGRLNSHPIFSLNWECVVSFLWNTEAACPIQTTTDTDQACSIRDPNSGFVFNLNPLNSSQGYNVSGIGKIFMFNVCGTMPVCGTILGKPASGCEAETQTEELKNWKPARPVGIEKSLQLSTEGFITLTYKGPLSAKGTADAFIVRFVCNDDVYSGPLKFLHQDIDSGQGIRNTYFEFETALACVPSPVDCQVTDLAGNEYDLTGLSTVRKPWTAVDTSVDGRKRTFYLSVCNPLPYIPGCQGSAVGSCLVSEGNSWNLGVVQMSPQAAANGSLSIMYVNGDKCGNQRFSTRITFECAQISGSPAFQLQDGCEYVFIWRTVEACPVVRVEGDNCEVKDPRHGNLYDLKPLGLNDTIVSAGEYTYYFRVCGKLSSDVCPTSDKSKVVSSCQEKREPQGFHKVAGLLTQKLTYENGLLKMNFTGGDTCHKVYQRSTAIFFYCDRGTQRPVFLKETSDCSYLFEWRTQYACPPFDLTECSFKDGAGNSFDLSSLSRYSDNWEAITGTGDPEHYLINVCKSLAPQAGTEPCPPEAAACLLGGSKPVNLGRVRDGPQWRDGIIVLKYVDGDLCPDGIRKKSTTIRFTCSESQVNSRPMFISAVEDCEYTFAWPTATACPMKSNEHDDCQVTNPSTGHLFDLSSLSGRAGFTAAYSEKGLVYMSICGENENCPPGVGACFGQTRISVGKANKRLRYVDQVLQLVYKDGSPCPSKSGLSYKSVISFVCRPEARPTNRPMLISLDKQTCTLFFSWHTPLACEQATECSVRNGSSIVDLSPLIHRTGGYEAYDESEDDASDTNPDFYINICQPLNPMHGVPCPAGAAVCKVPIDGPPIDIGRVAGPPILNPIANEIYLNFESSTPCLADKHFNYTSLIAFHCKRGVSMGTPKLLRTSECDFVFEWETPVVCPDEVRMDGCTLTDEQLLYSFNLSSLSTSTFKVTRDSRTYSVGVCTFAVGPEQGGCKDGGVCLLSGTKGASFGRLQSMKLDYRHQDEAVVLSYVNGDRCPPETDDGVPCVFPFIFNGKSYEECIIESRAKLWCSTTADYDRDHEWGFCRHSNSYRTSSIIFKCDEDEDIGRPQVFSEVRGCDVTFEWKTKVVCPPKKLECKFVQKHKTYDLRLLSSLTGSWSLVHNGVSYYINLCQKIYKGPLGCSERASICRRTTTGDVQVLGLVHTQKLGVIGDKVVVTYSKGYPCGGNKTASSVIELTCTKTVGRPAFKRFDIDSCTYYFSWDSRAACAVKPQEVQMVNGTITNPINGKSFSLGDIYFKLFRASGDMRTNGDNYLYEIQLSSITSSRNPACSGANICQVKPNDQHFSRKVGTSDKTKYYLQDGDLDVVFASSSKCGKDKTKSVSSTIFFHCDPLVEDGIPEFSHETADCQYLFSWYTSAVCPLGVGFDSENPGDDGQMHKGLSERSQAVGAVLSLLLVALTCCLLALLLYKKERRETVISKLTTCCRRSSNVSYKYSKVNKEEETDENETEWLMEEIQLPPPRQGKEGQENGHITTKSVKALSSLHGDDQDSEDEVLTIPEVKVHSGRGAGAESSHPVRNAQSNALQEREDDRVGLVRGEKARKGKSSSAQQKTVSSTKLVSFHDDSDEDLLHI
UniProt O43719: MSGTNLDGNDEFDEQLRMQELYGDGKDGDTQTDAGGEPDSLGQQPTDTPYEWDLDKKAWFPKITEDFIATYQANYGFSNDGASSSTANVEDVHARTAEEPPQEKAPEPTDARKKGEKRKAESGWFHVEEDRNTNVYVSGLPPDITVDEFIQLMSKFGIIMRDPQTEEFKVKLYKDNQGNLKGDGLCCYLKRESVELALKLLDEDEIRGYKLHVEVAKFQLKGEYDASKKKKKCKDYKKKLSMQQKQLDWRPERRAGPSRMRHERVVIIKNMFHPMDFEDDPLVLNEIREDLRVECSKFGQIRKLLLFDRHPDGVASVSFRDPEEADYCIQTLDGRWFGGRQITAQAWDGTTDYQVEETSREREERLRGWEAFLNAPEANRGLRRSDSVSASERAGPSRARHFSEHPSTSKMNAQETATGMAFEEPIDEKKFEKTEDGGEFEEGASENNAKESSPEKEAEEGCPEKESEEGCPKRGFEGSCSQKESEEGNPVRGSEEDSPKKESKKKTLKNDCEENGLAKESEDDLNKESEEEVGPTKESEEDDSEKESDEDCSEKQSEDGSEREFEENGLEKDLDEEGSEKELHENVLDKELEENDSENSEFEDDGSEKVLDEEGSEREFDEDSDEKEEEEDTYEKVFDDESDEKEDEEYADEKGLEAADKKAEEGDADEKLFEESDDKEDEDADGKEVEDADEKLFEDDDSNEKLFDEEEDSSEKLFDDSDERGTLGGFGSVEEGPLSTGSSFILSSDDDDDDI
UniProt O00425, whole entry, looked up: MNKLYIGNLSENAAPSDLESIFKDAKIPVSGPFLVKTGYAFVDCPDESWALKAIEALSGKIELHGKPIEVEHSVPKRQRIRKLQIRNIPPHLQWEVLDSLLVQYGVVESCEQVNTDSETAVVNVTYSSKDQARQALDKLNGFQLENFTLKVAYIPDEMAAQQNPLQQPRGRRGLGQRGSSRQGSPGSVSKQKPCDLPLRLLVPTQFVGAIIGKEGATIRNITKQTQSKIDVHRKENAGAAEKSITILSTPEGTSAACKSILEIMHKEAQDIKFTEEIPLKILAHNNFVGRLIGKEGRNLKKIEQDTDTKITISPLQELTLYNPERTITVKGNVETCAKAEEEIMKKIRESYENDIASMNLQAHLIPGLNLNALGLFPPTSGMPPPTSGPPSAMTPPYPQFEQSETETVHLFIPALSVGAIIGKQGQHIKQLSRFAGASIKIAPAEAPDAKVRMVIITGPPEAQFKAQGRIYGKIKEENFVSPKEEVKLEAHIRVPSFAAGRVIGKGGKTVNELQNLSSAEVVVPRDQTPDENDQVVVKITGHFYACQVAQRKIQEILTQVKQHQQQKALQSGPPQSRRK
UniProt Q9Y2F5, 1599-1623: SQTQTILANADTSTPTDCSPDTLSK
UniProt O95373, 72-92: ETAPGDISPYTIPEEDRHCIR
UniProt Q9P2H3: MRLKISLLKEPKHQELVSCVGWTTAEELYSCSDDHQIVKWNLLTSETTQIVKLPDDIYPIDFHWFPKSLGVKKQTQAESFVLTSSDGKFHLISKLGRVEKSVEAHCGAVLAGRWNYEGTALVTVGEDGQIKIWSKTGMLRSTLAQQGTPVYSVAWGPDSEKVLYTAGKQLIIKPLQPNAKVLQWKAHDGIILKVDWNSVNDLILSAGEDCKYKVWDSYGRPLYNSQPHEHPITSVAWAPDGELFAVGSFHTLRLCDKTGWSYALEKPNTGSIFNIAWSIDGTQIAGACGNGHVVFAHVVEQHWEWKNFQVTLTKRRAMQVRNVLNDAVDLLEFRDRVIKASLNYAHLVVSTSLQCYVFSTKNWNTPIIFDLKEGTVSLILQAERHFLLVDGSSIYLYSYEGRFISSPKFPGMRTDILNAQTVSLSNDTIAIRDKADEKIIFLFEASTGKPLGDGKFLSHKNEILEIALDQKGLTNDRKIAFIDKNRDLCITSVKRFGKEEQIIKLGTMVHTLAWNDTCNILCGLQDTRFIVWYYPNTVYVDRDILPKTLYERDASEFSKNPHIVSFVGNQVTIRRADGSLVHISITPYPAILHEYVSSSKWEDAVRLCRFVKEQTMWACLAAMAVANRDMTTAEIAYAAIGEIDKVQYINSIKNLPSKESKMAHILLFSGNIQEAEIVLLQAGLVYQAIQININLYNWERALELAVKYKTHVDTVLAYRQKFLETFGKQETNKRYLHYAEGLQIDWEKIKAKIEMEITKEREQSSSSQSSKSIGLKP
UniProt Q9H160: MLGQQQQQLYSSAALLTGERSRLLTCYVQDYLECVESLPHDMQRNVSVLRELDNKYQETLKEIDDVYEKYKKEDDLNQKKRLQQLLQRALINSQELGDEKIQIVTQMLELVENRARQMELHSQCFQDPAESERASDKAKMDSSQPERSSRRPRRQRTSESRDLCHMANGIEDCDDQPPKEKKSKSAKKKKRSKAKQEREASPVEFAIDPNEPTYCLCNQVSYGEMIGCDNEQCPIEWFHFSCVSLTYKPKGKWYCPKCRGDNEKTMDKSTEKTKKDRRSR

Compound: ClCC(=O)N[C@@H]1CCCc2ccccc12
Test: log2 mean competition ratio of IA-DTB cysteine labelling (DMSO/compound) (log2 ratio); higher = stronger cysteine engagement by compound
Conditions: 50 µM; treatment time: 4 h; cell line lysate: HEK293T
Experimental: (§1)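 IA-DTB competitive cysteine chemoproteomics in HEK293T RIPA lysate. Lysates were treated with compound 29 or 30 at 50 or 200 µM for 4 h, then IA-DTB (500 µM, 1 h), trypsin-digested, NeutrAvidin-enriched and analysed by diaPASEF. Competition ratio = intensity DMSO / intensity compound (n=4 treated, n=64 DMSO); binding: mean log2 CR ≥ 1 and p ≤ 0.05 plus QC filters. Target is the cysteine site.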

Target	log2 mean competition ratio
IDH2 C154 (UniProt P48735)	0.203
HPS3 C915 (UniProt Q969F9)	-0.0902
HSPH1 C245	-0.0518
IRF2BP1 C546 (UniProt Q8IU81)	-0.00301
IQGAP2 C1449 (UniProt Q13576)	-0.101
HSPA9 C66 (UniProt P38646)	0.147
ILVBL C608 (UniProt A1L0T0)	-0.0274
HSPA9 C366 (UniProt P38646)	-0.0673
HSPBP1 C310	0.432
IRF2BPL C385 (UniProt Q9H1B7)	0.38
IDH2 C402 (UniProt P48735)	-0.178
HPRT1 C206 (UniProt P00492)	-0.0461
INTS1 C1440 (UniProt Q8N201)	0.0959
HSD17B11 C94 (UniProt Q8NBQ5)	0.0831
INTS9 C578 (UniProt Q9NV88)	-0.0456
ILKAP C190 (UniProt Q9H0C8)	0.263
IPO5 C473	0.000849
INTS6 C783 (UniProt Q9UL03)	-0.0933
HSPA9 C608 (UniProt P38646)	-0.0889

Target	log2 mean competition ratio
IKBKG C167 (UniProt Q9Y6K9)	-0.209
IGF2R C1042 (UniProt P11717)	0.0629
IPO5 C1057	0.262
IQCC C248	-0.313
IGHMBP2 C897 (UniProt P38935)	-0.0897
HTATSF1 C480 (UniProt O43719)	-0.108
IGFBPL1 C115	-0.0979
IGF2BP3 C257 (UniProt O00425)	-0.128
ICE1 C1616 (UniProt Q9Y2F5)	0.228
HUWE1 C467	-0.00967
INTS10 C387 (UniProt Q9NVR2)	-0.222
IPO7 C90 (UniProt O95373)	-0.387
INCENP C15 (UniProt Q9NQS7)	0.253
IFT80 C106 (UniProt Q9P2H3)	0.486
IKBKG C131 (UniProt Q9Y6K9)	0.282
ING2 C124 (UniProt Q9H160)	-0.113
HSPD1 C237 (UniProt P10809)	-0.144
INTS2 C48 (UniProt Q9H0H0)	0.215
IGF2BP3 C336 (UniProt O00425)	-0.195

Same assay, conditions: 200 µM; treatment time: 4 h; cell line lysate: HEK293T

Target	log2 mean competition ratio
IDH2 C154 (UniProt P48735)	0.339
HPS3 C915 (UniProt Q969F9)	-0.236
HSPH1 C245	0.0511
IRF2BP1 C546 (UniProt Q8IU81)	-0.176
IQGAP2 C1449 (UniProt Q13576)	-0.242
HSPA9 C66 (UniProt P38646)	0.206
ILVBL C608 (UniProt A1L0T0)	0.159
HSPA9 C366 (UniProt P38646)	-0.135
HSPBP1 C310	0.39
IRF2BPL C385 (UniProt Q9H1B7)	-0.26
IDH2 C402 (UniProt P48735)	-0.236
HPRT1 C206 (UniProt P00492)	-0.112
INTS1 C1440 (UniProt Q8N201)	0.322
HSD17B11 C94 (UniProt Q8NBQ5)	0.406
INTS9 C578 (UniProt Q9NV88)	0.334
ILKAP C190 (UniProt Q9H0C8)	0.0752
IPO5 C473	0.224
INTS6 C783 (UniProt Q9UL03)	-0.219
HSPA9 C608 (UniProt P38646)	-0.202

Target	log2 mean competition ratio
IKBKG C167 (UniProt Q9Y6K9)	-0.0143
IGF2R C1042 (UniProt P11717)	0.123
IPO5 C1057	0.354
IQCC C248	0.135
IGHMBP2 C897 (UniProt P38935)	0.103
HTATSF1 C480 (UniProt O43719)	0.00542
IGFBPL1 C115	0.123
IGF2BP3 C257 (UniProt O00425)	-0.0239
ICE1 C1616 (UniProt Q9Y2F5)	-0.389
HUWE1 C467	0.338
INTS10 C387 (UniProt Q9NVR2)	-0.0897
IPO7 C90 (UniProt O95373)	0.301
INCENP C15 (UniProt Q9NQS7)	-0.317
IFT80 C106 (UniProt Q9P2H3)	0.00345
IKBKG C131 (UniProt Q9Y6K9)	-0.161
ING2 C124 (UniProt Q9H160)	0.347
HSPD1 C237 (UniProt P10809)	-0.162
INTS2 C48 (UniProt Q9H0H0)	0.0926
IGF2BP3 C336 (UniProt O00425)	0.0501

Compound: ClCC(=O)N[C@H]1CCCc2ccccc12
Test: as above
Conditions: 50 µM; treatment time: 4 h; cell line lysate: HEK293T
Experimental: as §1

Target	log2 mean competition ratio
HSPH1 C245	-0.14
HSPA9 C366 (UniProt P38646)	0.214
IDH2 C402 (UniProt P48735)	-0.247
HSD17B11 C94 (UniProt Q8NBQ5)	-0.0224
ILKAP C190 (UniProt Q9H0C8)	-0.0199
IKBKG C167 (UniProt Q9Y6K9)	0.173
IGF2R C1042 (UniProt P11717)	-0.467
IQCC C248	-0.386
HTATSF1 C480 (UniProt O43719)	0.0615
IGFBPL1 C115	-0.147
IFT80 C106 (UniProt Q9P2H3)	0.476
IKBKG C131 (UniProt Q9Y6K9)	0.478
